Out of some 52,000 sequences screened, about 210 (0.4%) were called active.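 The calls were made as follows: active = gene whose silencing raises cell survival under the drug, median off-target-corrected z-score across its silencing RNAs 2 or more; inactive = the rest.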 The list shows a part of the results.

This assay in a line: Resistance to Poly (ADP-Ribose) Polymerase inhibitor: Gene Identification via Genome-wide siRNA Screen. The following applies: mouse BRCA2 R2336H ES cells, olaparib, CellTiter-Glo viability; hits give high values. The gist of the method: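 Mouse BRCA2 R2336H ES cells were reverse-transfected with siRNA (20 nM final), treated at 48 h with 500 nM olaparib, and read by CellTiter-Glo after 72 h. Scores: MAD-based z per siRNA, median per gene, seed off-target correction.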
(In ATP-based viability assays light output follows the ATP content of the culture.)
GGUUUUAGCCACAAGUAUGTT against Wdr50: the z-score is inactive: 0.213.
In the case of “GGGCAUCCUCUUCAAAGAUTT against 4930449E07Rik” it was inactive: 0.146.
In the case of GGCAGUAACUGUAAGCCUGTT against BC029214 it was inactive: -2.1; in that of UAGUGUCACCUACAGAGAATT against Sr278, inactive: -0.819.
In the case of CCACAAGGAACAAUGAUCCTT against Kirrel3 it was inactive: -0.526; in that of GGGCACACUAAUCAAUGAATT against Lilrb4, inactive: 1.55.
For the sequence GGGAAAUUCUGUCUAUUUUTT against Bmp5, the z-score was inactive: 0.432.
In the case of GGAAAACACAGCUACGGAATT against Ak5 it was inactive: 0.523; in that of CCAGUACGGCCCUAUGAAUTT against Zic2, inactive: -0.39; in that of CCAACGAAUUCUUGUUACUTT against Kcnc3, inactive: 0.222.
As to CCUUAUUUUGACCGUCCAATT against Ylpm1, the z-score was inactive: 0.557.
In the case of GGCUGCUGCUCAGUCUUUATT against Pou2f1, the z-score is inactive: -2.13.
Consider CCCACAAAAUACCAAAUCCTT against Klk27, for which the z-score was inactive: -1.34.
In the case of “GGUCCAGAUACAGAACUGUTT against 2610103M17Rik” it was inactive: -2.5; in that of “GCAAAGUGAAUAAGUUCUGTT against 9030227G01Rik”, inactive: -0.149; in that of CUUAAAGUGAGAUGGUUUCTT against Hist2h2be, inactive: 0.112.
As for CGGCAACUAUCCAUUGAAATT against Cyp2c50, the z-score was inactive: 0.0668.
Next, GGUUACAUGCCCUACCUCATT against Def6: inactive: -2.32.
For GGCAACAUGCGGACAACAUTT against Trim14, the z-score is inactive: 0.721.
For the sequence GCUUAGAUCACCUAAUGACTT against Adprtl3, the z-score is inactive: 1.6.
In the case of GGGUCCAGAAAUCAUGUUATT against Slc35a5, the z-score was inactive: -0.121.
Regarding “GGCGGAUCUCUUGAGUGUUTT against 6230410P16Rik”, the z-score was inactive: 1.02.
Regarding GGCUUUCUUUUUGAAAGAATT against Arhgap10, the z-score is inactive: 0.957.
Regarding CCCACUAAGGAGAUCAGUUTT against Lasp1, the z-score is inactive: -0.24.
Regarding GCCGUUGCCUUUCAAGGGATT against Inhbe, the z-score was inactive: 0.667.
With “GCACGCUCUUCAUUCGACATT against 1700067C01Rik”, the z-score is inactive: -0.00411.
CGACUUCAAAUCUGGGCCATT against Psmd14: the z-score is inactive: -2.03.
In the case of CCUAUACAAGGGAGGUGAATT against Il1f10 it was inactive: -0.817; in that of GCAUUGACAUCGAUCAGAUTT against Irx1, inactive: 0.398.
In the case of “GGAUAACCUCCUUACCGUCTT against 2010003J03Rik” it was inactive: 1.94; in that of GGCACAGGGACCAUUGUUGTT against Hsd17b1, active: 2.34.
In the case of GGAGUUGGUUCUGUGUUAUTT against Tcf7l2 it was inactive: 0.998; in that of GCCUAAUUAUGAUAGCAGUTT against Olfr639, inactive: 0.582.
Regarding CGCUGUUUGAAUUUGUAUUTT against AI429152, the z-score is inactive: -1.02.
In the case of GGCGUGAUCGCUCUCCAAUTT against Ncoa5 it was inactive: -0.505; in that of “GCCAGUGUUCAACUCAUGCTT against 1190005F20Rik”, inactive: -1.01.
In the case of GGUAACAAUCCCAGAAUCCTT against Mpa2 it was inactive: -0.205.
Next, GCUGAUCUUUUUCAACAUGTT against Tas2r102: inactive: 1.15.
GGCAUACAAAGCCCUCUAUTT against Kcnrg: the z-score was inactive: -1.11.
Take GGUUGUGCAUUGUUUAUUGTT against Ppfibp1: the z-score is inactive: 1.93.
In the case of AACAACUGAGCAAAUCCACTT against Thoc4 it was inactive: -1.53.
CCUCAUCUACAAGUGUGGUTT against Eef1a2: the z-score was inactive: -0.386.
Next, GGAUCAUUUACAUUCAUACTT against Alg12: inactive: -1.37; GCCCACGUAUUUGUCUGCUTT against Sprn: inactive: -1.58.
Next, GGUUCUAGACAAUUACCUGTT against Clic1: inactive: -0.399; GGUUCAAGCCAUCUUCAAATT against Olfr1325: inactive: 1.21; GGCCUACCCAAUUCUUAACTT against Ces1: inactive: -0.547.
On to “GCGCAAUAUAGAGUCAUCATT against 6530404N21Rik”, for which the z-score was inactive: -0.0242.
On to AGGUUUUUAGCCUGAGUGATT against Olfr688, for which the z-score is inactive: 0.641.
Consider GGAAUAAGUAGUGAUAGAGTT against Il5ra, for which the z-score is inactive: 0.846.
In the case of GCAAAGUAUAGCUAUGUGCTT against LOC209380, the z-score was inactive: -0.041.
In the case of GGAGCGACAACUGUGAUAUTT against Liph it was inactive: -0.293.
With GGCCUGUCUGAGCUUAACATT against Cklfsf3, the z-score is inactive: -0.723.
In the case of CCAAGAGGAUUUUCUCUUUTT against Krtap6-1 it was inactive: 0.46; in that of CGGUUAACUGGAAAGUGCGTT against Gm644, inactive: 0.553.
As to GCUGUGAAAUGUUACUGCUTT against Gm405, the z-score is inactive: 0.173.
In the case of “GCGACGAGAAGAAUCUGCUTT against 1110012J17Rik”, the z-score was inactive: 1.01.
In the case of GGACAACUUCACCUUGAUUTT against Dpysl2, the z-score was inactive: 0.112.
For GCCUGUCAACUACCCAUAUTT against Sdbcag84, the z-score is inactive: 1.64.
As for GCCACGUUCCCUUGAUCAUTT against Mx2, the z-score was inactive: -0.331.
On to GCCCAAGUUUCGGUCUCCATT against Map4k1, for which the z-score is inactive: -1.24.
Take “GGAACAAAGAUUGAGAGAATT against 5730555F13Rik”: the z-score is inactive: -0.71.
In the case of GACAAGAUGCACUUCGAAUTT against Uchl3, the z-score is inactive: -0.199.
GGGUCUGCUGGUUUAUUUUTT against Olfr720: the z-score was inactive: 0.616.
Consider GGCCCUAAACAAGUUAUCUTT against LOC434285, for which the z-score was inactive: -0.321.
For “GGUAGAAGCAGAGUUACCATT against 4933400C05Rik”, the z-score was inactive: 1.17.
With GGACAGGAGUUUAAAAUUATT against Mmrp19, the z-score is inactive: 0.948.
In the case of GGAGGAGGUGGAAUUCAUUTT against Dnajb6, the z-score was inactive: -1.66.
Next, GGACAGUUGUGUUUCUUCUTT against Senp6: inactive: -0.17.
As for CGGAAAUGUAAGUACUUUATT against Taf13, the z-score is inactive: 1.22.
Turning to GGAUUUUUGGCUUCAUACUTT against Dcbld2, the z-score was inactive: 0.417.
Take “CCCAGUUCUGUCCUACUUATT against 4931407K02Rik”: the z-score is inactive: 0.531.
Regarding GCAACACCUACGUUUUUGUTT against Txnl1, the z-score was inactive: 1.01.
In the case of GCCGAUGAAGUAAAUUUACTT against LOC212390 it was inactive: 0.463; in that of GGAAGAUGUCUCCUAUGAGTT against Hebp1, inactive: -1.03.
Next, “GGACAAUGACCAGAAUAGCTT against 0610012H03Rik”: inactive: -0.186.
In the case of CCUUCCAUCUUUGUCUACCTT against Olfr1181, the z-score was inactive: 0.21.
As to GGGAAUUCUUCCCACCUCUTT against Pramel7, the z-score is inactive: -0.0747.
On to CAGUUUUUGGUCUCUAUCUTT against Olfr113, for which the z-score was inactive: 0.798.
Take CCAAGGGUAGUAUUUUAAATT against Nufip1: the z-score is inactive: 0.0643.
In the case of GGAAUCCAAGAAGCCACCATT against Ghrl it was inactive: 0.223.
In the case of CCUUUAGAGAAAAGUUCUATT against Pja2, the z-score is inactive: -0.81.
“GAGUUUACCUAGUCUUUGATT against 2610028H07Rik”: the z-score was inactive: -0.00982.
Take GGCUUGAAGAUGUCUAUGATT against Aptx: the z-score is inactive: -1.4.
Take CCUUUGGUUUCCAGUGAGUTT against H2-M10.6: the z-score was inactive: -1.16.
In the case of GGAGAACCAAAACAGCGAATT against Hoxa2 it was inactive: 0.951; in that of “GCAUGCGAUGAAGACAACATT against 2610021K21Rik”, inactive: -0.613.
Turning to “GCUGGAAGUAGUCCAUACATT against 1810074P20Rik”, the z-score was inactive: -0.771.
Turning to GGUACAGGAUAAGCAAAUATT against Txndc4, the z-score was inactive: -0.356.
In the case of GGUUCUGUCCAAUGUCUGATT against Oas1f it was inactive: -0.116.
Turning to GCGUAUUCAGCUGGGAUAGTT against Marveld2, the z-score is inactive: -2.98.
In the case of GGAUUAGAUUAACCUCGACTT against P518 it was inactive: -1.13.
In the case of GGGAAUAAGUAGUAGACUCTT against BC049807 it was inactive: 0.975; in that of GCCUUUACAACAGAACCUUTT against Dip3b, inactive: 0.0761.
Regarding GCACCAUUUUGAUCGUCAUTT against Olfr519, the z-score is inactive: 0.0178.
Regarding GGCAGACAAGUUGUUAAAATT against Nusap1, the z-score was inactive: -1.11.
In the case of GGGUGGGUGUUCAUUAUUATT against Timd2, the z-score is inactive: 0.102.
Regarding GGAUCUGGAGAAGAUGAUGTT against Ret, the z-score was inactive: -1.9.
In the case of GGGACAAAGUAAUAAAGUGTT against Sprrl2, the z-score is inactive: -0.821.
With GGAAAUCCAAGAACUUAAUTT against Fgfr1op2, the z-score is inactive: 0.325.
In the case of GGACUCUCAUUGAGGAACUTT against Znhit2 it was inactive: 1.06; in that of GGUUUUGAAAAAGCAUCAATT against Myoz2, inactive: 0.6; in that of “GGGCCAACAAACUGUUUAATT against 2210402C18Rik”, inactive: -0.095.
As for GGAUGACUCACAGAAUUUGTT against Olfr167, the z-score is inactive: -0.118.

These data come from PubChem BioAssay AID1347423 (Functional Genomics Laboratory (NCATS/FGL), 2020).
